Target: TORC2 (Flag-PiaA immunocomplex) (Dictyostelium discoideum, UniProt Q86C65)
Test: biochemical

By UniProt entry, the sequences of proteins in these tests, tags left out.
UniProt Q86C65, whole entry: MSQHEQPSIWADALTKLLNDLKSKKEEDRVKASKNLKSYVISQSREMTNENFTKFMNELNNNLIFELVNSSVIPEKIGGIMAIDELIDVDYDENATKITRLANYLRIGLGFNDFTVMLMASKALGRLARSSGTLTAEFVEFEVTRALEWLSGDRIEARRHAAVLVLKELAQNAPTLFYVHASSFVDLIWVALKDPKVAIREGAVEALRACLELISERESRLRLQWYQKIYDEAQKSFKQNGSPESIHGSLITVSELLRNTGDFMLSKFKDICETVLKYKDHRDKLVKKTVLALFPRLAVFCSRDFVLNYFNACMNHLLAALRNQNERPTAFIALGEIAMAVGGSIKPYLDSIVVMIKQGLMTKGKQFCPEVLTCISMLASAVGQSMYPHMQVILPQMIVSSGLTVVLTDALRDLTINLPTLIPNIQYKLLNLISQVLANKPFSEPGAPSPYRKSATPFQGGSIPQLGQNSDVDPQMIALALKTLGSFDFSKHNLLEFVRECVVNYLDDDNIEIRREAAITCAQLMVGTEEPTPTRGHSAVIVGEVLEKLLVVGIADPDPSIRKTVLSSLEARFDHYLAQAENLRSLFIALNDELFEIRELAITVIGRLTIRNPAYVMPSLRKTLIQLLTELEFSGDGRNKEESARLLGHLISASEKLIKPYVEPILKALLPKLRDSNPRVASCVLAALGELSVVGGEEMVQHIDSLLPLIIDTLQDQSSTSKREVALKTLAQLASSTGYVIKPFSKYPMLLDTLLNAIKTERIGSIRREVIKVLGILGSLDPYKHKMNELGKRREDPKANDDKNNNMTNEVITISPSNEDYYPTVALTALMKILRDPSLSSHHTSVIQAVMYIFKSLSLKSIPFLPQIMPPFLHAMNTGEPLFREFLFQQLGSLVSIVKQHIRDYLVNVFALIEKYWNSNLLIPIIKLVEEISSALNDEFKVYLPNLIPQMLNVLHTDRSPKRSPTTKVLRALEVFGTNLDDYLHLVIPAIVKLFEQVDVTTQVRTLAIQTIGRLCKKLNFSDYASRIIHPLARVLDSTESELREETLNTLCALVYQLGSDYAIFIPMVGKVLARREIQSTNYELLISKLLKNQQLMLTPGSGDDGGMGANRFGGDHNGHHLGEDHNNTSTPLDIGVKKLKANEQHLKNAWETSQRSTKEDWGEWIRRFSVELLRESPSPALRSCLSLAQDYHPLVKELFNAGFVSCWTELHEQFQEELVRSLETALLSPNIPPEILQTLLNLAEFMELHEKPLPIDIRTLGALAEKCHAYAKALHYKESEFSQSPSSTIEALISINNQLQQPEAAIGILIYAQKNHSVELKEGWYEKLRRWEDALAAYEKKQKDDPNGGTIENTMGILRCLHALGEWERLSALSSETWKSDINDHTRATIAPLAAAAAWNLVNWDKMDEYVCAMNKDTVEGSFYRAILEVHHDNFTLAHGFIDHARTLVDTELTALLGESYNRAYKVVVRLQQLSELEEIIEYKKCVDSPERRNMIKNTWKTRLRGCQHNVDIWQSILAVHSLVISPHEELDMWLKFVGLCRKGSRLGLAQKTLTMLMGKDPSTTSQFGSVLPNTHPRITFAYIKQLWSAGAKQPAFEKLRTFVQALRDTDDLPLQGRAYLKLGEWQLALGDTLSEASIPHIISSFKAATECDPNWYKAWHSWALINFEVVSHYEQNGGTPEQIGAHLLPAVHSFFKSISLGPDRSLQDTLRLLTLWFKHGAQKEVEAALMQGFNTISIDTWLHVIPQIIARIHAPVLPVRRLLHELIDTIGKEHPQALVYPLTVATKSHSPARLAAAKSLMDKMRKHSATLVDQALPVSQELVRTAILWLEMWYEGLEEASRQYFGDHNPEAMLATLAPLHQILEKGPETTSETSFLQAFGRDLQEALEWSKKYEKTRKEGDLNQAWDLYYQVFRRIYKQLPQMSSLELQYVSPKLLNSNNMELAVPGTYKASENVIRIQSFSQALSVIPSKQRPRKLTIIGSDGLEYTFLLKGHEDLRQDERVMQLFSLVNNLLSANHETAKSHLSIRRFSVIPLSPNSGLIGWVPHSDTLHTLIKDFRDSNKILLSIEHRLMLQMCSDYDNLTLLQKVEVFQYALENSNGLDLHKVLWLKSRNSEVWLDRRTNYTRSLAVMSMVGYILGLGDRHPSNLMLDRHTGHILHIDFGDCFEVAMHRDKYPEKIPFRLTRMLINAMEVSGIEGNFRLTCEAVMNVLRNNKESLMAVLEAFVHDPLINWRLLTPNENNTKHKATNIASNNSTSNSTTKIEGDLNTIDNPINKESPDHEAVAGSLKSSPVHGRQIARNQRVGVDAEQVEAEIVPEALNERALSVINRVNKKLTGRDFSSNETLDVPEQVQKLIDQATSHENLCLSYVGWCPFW

`CC(C)n1nc(-c2cc3cc(O)ccc3[nH]2)c2c(N)ncnc21` [PP242] showed an IC50 of roughly 4 nM.

— PMC2930282 (The Journal of Cell Biology, 2010)
